The target of the assay is ATPγS-locked CLPXP (CLPX-3xFLAG hexamer with CLPP 14-mer) (human | human (by the printed accession Q16740)) (UniProt O76031+Q16740). Kind of assay: co-IP.

The chains behind the UniProt entries cited, without tags or fusion partners. Where a name states a change or a piece, a line headed by the entry shows the natural chain unless it says otherwise.
UniProt Q16740: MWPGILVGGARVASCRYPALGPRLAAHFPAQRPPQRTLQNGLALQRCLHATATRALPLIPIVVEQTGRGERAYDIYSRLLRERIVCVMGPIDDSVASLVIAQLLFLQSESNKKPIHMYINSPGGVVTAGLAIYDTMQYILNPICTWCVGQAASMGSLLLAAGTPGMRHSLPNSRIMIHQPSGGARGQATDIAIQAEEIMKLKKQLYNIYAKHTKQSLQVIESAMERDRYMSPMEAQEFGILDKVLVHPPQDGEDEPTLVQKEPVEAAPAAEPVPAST
UniProt O76031: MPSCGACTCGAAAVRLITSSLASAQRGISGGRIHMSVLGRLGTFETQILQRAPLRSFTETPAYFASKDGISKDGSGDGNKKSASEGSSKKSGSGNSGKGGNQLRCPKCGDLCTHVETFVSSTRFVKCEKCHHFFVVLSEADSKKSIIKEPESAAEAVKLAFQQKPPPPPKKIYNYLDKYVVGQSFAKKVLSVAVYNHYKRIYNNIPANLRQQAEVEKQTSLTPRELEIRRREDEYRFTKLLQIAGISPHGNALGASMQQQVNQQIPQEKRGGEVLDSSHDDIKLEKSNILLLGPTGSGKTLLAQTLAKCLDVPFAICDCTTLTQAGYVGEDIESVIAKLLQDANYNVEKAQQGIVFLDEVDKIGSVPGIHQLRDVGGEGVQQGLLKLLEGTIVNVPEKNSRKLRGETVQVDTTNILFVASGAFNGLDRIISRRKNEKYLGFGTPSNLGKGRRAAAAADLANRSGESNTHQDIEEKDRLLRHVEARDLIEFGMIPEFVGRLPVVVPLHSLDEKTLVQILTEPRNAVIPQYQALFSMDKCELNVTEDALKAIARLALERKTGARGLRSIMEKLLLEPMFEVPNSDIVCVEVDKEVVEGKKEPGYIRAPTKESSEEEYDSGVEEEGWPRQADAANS

These are yes or no findings as the source states them, for the method shown. Some entries that bind do so weakly or less than the wild type.

B1: ALAS2 (ALA synthase, erythroid isozyme), residues 54-587 (enzyme, UniProt P22557 54-587)
chain: KATKAGGDSPSWAKGHCPFMLSELQDGKSKIVQKAAPEVQEDVKAFKTDLPSSLVSVSLRKPFSGPQEQEQISGKVTHLIQNNMPGNYVFSYDQFFRDKIMEKKQDHTYRVFKTVNRWADAYPFAQHFSEASVASKDVSVWCSNDYLGMSRHPQVLQATQETLQRHGAGAGGTRNISGTSKFHVELEQELAELHQKDSALLFSSCFVANDSTLFTLAKILPGCEIYSDAGNHASMIQGIRNSGAAKFVFRHNDPDHLKKLLEKSNPKIPKIVAFETVHSMDGAICPLEELCDVSHQYGALTFVDEVHAVGLYGSRGAGIGERDGIMHKIDIISGTLGKAFGCVGGYIASTRDLVDMVRSYAAGFIFTTSLPPMVLSGALESVRLLKGEEGQALRRAHQRNVKHMRQLLMDRGLPVIPCPSHIIPIRVGNAALNSKLCDLLLSKHGIYVQAINYPTVPRGEELLRLAPSPHHSPQMMEDFVEKLLLAWTAVGLPLQDVSVAACNFCRRPVHFELMSEWERSYFGNMGPQYVTTYA
In the case of B1, the binding entry is on record as “binds weakly”.

For the origin of these results see article doi:10.1101/2024.07.05.602318 (bioRxiv, 2024).
